Article PMC7504817 (Molecules, 2020)

Test: general procedure: peptide synthesis; 2-chlorotrityl chloride resin; HATU/DIEA (cyclization)
Conditions: cyclisation step; for cyclisation yield: on linear precursor

Substance | cyclisation yield | final HPLC purity (system A, 214 nm) | final HPLC purity (system B, 230 nm)
cyclo(F[dP][dF]W) (SMILES O=C1N[C@@H](Cc2ccccc2)C(=O)N2CCC[C@@H]2C(=O)N[C@H](Cc2ccccc2)C(=O)N[C@H]1Cc1c[nH]c2ccccc12) | 43% | – | –
cyclo(F[dP][dF][dW]) (SMILES O=C1N[C@H](Cc2ccccc2)C(=O)N[C@H](Cc2c[nH]c3ccccc23)C(=O)N[C@@H](Cc2ccccc2)C(=O)N2CCC[C@H]12) | 48% | – | –
cyclo([dF][dP]FW) (SMILES O=C1N[C@H](Cc2ccccc2)C(=O)N2CCC[C@@H]2C(=O)N[C@@H](Cc2ccccc2)C(=O)N[C@H]1Cc1c[nH]c2ccccc12) | 34% | – | –
cyclo([dF][dP]F[dW]) (SMILES O=C1N[C@H](Cc2c[nH]c3ccccc23)C(=O)N[C@H](Cc2ccccc2)C(=O)N2CCC[C@@H]2C(=O)N[C@H]1Cc1ccccc1) | 45% | 94% | 96%
cyclo([dF][dP][dF]W) (SMILES O=C1N[C@H](Cc2ccccc2)C(=O)N2CCC[C@@H]2C(=O)N[C@H](Cc2ccccc2)C(=O)N[C@H]1Cc1c[nH]c2ccccc12) | 50% | – | –

[ ]: non-standard residue; d: D form.
